Record: PubChem BioAssay AID720710 (VTT Finland, 2013)
Test: 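Knock-downs that leave cyclin E-high cells sensitive to replication stress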 (primary screen). Cell system: human U-2 OS bone cancer cells, parental and a cyclin E (CCNE1) overexpressing line. Reagents: single siRNA against human genes, 1 µM siRNA in the printed spot mix. Duration: 67 h. Conditions: half the arrays: hydroxyurea 2 mM for 16 h, then 3 h recovery; other arrays untreated. Detection: 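DNA synthesis measured as imaged EdU uptake per nucleus (DAPI) at 67 h, normalised to subgrid median and given as z-score versus non-targeting controls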. Reading the numbers: EdU z-score, cyclin E line, hydroxyurea and EdU z-score, parental, hydroxyurea: higher = more DNA synthesis than non-targeting controls.
The whole screen tested about 1,380 reagents; this is an unselected part. 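One array per condition without replicates; hydroxyurea arrays received 2 mM for 16 h plus 3 h recovery.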 The numbers tell different reagents against one gene apart. Not all columns of the deposit are shown.

POLB #1
- EdU z-score, cyclin E line, hydroxyurea: 0.0294
- EdU z-score, parental, hydroxyurea: -2.67

POLB #2
- EdU z-score, cyclin E line, hydroxyurea: 0.0345
- EdU z-score, parental, hydroxyurea: 6.04

HUS1 #1
- EdU z-score, cyclin E line, hydroxyurea: 0.333
- EdU z-score, parental, hydroxyurea: 1.32

HUS1 #2
- EdU z-score, cyclin E line, hydroxyurea: 0.811
- EdU z-score, parental, hydroxyurea: 1.57

GTPBP4 #1
- EdU z-score, cyclin E line, hydroxyurea: -1.54
- EdU z-score, parental, hydroxyurea: 0.927

GTPBP4 #2
- EdU z-score, cyclin E line, hydroxyurea: 0.769
- EdU z-score, parental, hydroxyurea: 3.11

RPAIN #1
- EdU z-score, cyclin E line, hydroxyurea: -0.565
- EdU z-score, parental, hydroxyurea: -1.58

RPAIN #2
- EdU z-score, cyclin E line, hydroxyurea: -0.294
- EdU z-score, parental, hydroxyurea: 2.29

NPRL3 #1
- EdU z-score, cyclin E line, hydroxyurea: -2.1
- EdU z-score, parental, hydroxyurea: -1.36

NPRL3 #2
- EdU z-score, cyclin E line, hydroxyurea: 0.583
- EdU z-score, parental, hydroxyurea: 0.268

RNGTT #1
- EdU z-score, cyclin E line, hydroxyurea: 0.165
- EdU z-score, parental, hydroxyurea: -2.82

RNGTT #2
- EdU z-score, cyclin E line, hydroxyurea: 0.797
- EdU z-score, parental, hydroxyurea: 3.43

TRANK1 #1
- EdU z-score, cyclin E line, hydroxyurea: -2.97
- EdU z-score, parental, hydroxyurea: -0.121

TRANK1 #2
- EdU z-score, cyclin E line, hydroxyurea: -0.391
- EdU z-score, parental, hydroxyurea: 2.17

KMT2D #1
- EdU z-score, cyclin E line, hydroxyurea: -2.07
- EdU z-score, parental, hydroxyurea: -2.52

KMT2D #2
- EdU z-score, cyclin E line, hydroxyurea: -2.05
- EdU z-score, parental, hydroxyurea: -1

H2AC14 #1
- EdU z-score, cyclin E line, hydroxyurea: -0.134
- EdU z-score, parental, hydroxyurea: -0.792

H2AC14 #2
- EdU z-score, cyclin E line, hydroxyurea: 0.307
- EdU z-score, parental, hydroxyurea: 2.37

CHD6 #1
- EdU z-score, cyclin E line, hydroxyurea: -1.32
- EdU z-score, parental, hydroxyurea: -12.3

CHD6 #2
- EdU z-score, cyclin E line, hydroxyurea: -1.22
- EdU z-score, parental, hydroxyurea: 0.306

PRIM2 #1
- EdU z-score, cyclin E line, hydroxyurea: -0.296
- EdU z-score, parental, hydroxyurea: -2.38

PRIM2 #2
- EdU z-score, cyclin E line, hydroxyurea: -0.122
- EdU z-score, parental, hydroxyurea: 1.41

POLE3 #1
- EdU z-score, cyclin E line, hydroxyurea: 0.221
- EdU z-score, parental, hydroxyurea: -2.63

POLE3 #2
- EdU z-score, cyclin E line, hydroxyurea: 0.743
- EdU z-score, parental, hydroxyurea: 3.19

H2BC14 #1
- EdU z-score, cyclin E line, hydroxyurea: -1.49
- EdU z-score, parental, hydroxyurea: -4.12

H2BC14 #2
- EdU z-score, cyclin E line, hydroxyurea: -0.76
- EdU z-score, parental, hydroxyurea: 1.72

POLG #1
- EdU z-score, cyclin E line, hydroxyurea: -0.422
- EdU z-score, parental, hydroxyurea: -0.816

POLG #2
- EdU z-score, cyclin E line, hydroxyurea: -0.11
- EdU z-score, parental, hydroxyurea: 0.368

IGHMBP2 #1
- EdU z-score, cyclin E line, hydroxyurea: -2.74
- EdU z-score, parental, hydroxyurea: -5.24

IGHMBP2 #2
- EdU z-score, cyclin E line, hydroxyurea: 0.198
- EdU z-score, parental, hydroxyurea: -2.73

ORC4 #1
- EdU z-score, cyclin E line, hydroxyurea: -0.874
- EdU z-score, parental, hydroxyurea: -5.13

ORC4 #2
- EdU z-score, cyclin E line, hydroxyurea: -0.292
- EdU z-score, parental, hydroxyurea: -0.101

LOC440577 #1
- EdU z-score, cyclin E line, hydroxyurea: -0.537
- EdU z-score, parental, hydroxyurea: -0.323

LOC440577 #2
- EdU z-score, cyclin E line, hydroxyurea: 0.111
- EdU z-score, parental, hydroxyurea: 0.142

PRMT7 #1
- EdU z-score, cyclin E line, hydroxyurea: 0.14
- EdU z-score, parental, hydroxyurea: 3

PRMT7 #2
- EdU z-score, cyclin E line, hydroxyurea: 1.42
- EdU z-score, parental, hydroxyurea: 3.94

LOC648822 #1
- EdU z-score, cyclin E line, hydroxyurea: -1.92
- EdU z-score, parental, hydroxyurea: -2.34

LOC648822 #2
- EdU z-score, cyclin E line, hydroxyurea: 0.961
- EdU z-score, parental, hydroxyurea: 0.186

PRMT8 #1
- EdU z-score, cyclin E line, hydroxyurea: -1.92
- EdU z-score, parental, hydroxyurea: -1.87

PRMT8 #2
- EdU z-score, cyclin E line, hydroxyurea: -1.15
- EdU z-score, parental, hydroxyurea: 1.79

Records listed so far whose gene name starts with R or r:
RPAIN #1
- EdU z-score, cyclin E line, hydroxyurea: -0.565
- EdU z-score, parental, hydroxyurea: -1.58

RPAIN #2
- EdU z-score, cyclin E line, hydroxyurea: -0.294
- EdU z-score, parental, hydroxyurea: 2.29

RNGTT #1
- EdU z-score, cyclin E line, hydroxyurea: 0.165
- EdU z-score, parental, hydroxyurea: -2.82

RNGTT #2
- EdU z-score, cyclin E line, hydroxyurea: 0.797
- EdU z-score, parental, hydroxyurea: 3.43
